PubChem BioAssay AID1259424 | University of Nebraska Medical Center | 2018
Screen: 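Seek colon cancer survival genes behaving like KSR1, using a six-gene signature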 (primary screen). System: human HCT116 colon cancer cells. Knock-down reagent: siRNA pool against human genes, 50 nM. Measured: 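Log2 levels of six mRNAs (branched-DNA multiplex), adjusted by two reference genes and the non-targeting median, then scored against the average KSR1 knockdown pattern as Pearson r and euclidean distance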. Scale: mean correlation with KSR1 profile: higher = expression change more like KSR1 knockdown; mean distance from KSR1 profile: higher = expression change less like KSR1 knockdown.
This is an unselected part of about 14,000 reagents. 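Higher correlation or smaller distance means closer resemblance to KSR1 loss; control wells, including KSR1 knockdowns, recur on many plates.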 Not all columns of the deposit are shown. No sequences are given here. Not given: the time to read-out.

With LMBR1, what does the deposit list?
mean correlation with KSR1 profile: -0.0239; mean distance from KSR1 profile: 1.34

With SPA17, how do the results read?
mean correlation with KSR1 profile: -0.456; mean distance from KSR1 profile: 3.18

Which result is listed for TNFRSF19?
mean correlation with KSR1 profile: 0.043; mean distance from KSR1 profile: 1.29

How did the screen score SPNS1?
mean correlation with KSR1 profile: 0.814; mean distance from KSR1 profile: 1.4

What is on record for ABI2?
mean correlation with KSR1 profile: -0.343; mean distance from KSR1 profile: 1.84

With GRAMD2B, what was measured?
mean correlation with KSR1 profile: -0.528; mean distance from KSR1 profile: 3.64

How did the screen score CNKSR1?
mean correlation with KSR1 profile: -0.0421; mean distance from KSR1 profile: 2.75

For VCL, how do the results read?
mean correlation with KSR1 profile: 0.184; mean distance from KSR1 profile: 1.4

What is on record for CALCOCO2?
mean correlation with KSR1 profile: -0.864; mean distance from KSR1 profile: 2.08

Which result is listed for SYK?
mean correlation with KSR1 profile: 0.133; mean distance from KSR1 profile: 1.98

For ABHD6, how do the results read?
mean correlation with KSR1 profile: 0.719; mean distance from KSR1 profile: 0.882

Which result is listed for XRN1?
mean correlation with KSR1 profile: 0.646; mean distance from KSR1 profile: 1.37

Which result is listed for RABEP1?
mean correlation with KSR1 profile: -0.064; mean distance from KSR1 profile: 2.04

Which result is listed for TMED2?
mean correlation with KSR1 profile: 0.253; mean distance from KSR1 profile: 1.17

What did the screen give for GPR173?
mean correlation with KSR1 profile: 0.53; mean distance from KSR1 profile: 2.38

With SNX22, what does the deposit list?
mean correlation with KSR1 profile: 0.0189; mean distance from KSR1 profile: 3.73

Which result is listed for PPP1R2?
mean correlation with KSR1 profile: 0.453; mean distance from KSR1 profile: 3.27

What is on record for STXBP3?
mean correlation with KSR1 profile: 0.777; mean distance from KSR1 profile: 0.813

What is on record for GEMIN6?
mean correlation with KSR1 profile: 0.384; mean distance from KSR1 profile: 1.95

How did the screen score RPLP2?
mean correlation with KSR1 profile: -0.592; mean distance from KSR1 profile: 2.1

With ADAMTS4, what was measured?
mean correlation with KSR1 profile: 0.504; mean distance from KSR1 profile: 1.24

Which result is listed for CCND2?
mean correlation with KSR1 profile: -0.875; mean distance from KSR1 profile: 3.07

How did the screen score PHF7?
mean correlation with KSR1 profile: -0.334; mean distance from KSR1 profile: 1.91

What did the screen give for CCNA1?
mean correlation with KSR1 profile: 0.202; mean distance from KSR1 profile: 1.45

With PHYH, what does the deposit list?
mean correlation with KSR1 profile: 0.195; mean distance from KSR1 profile: 2.7

With TSEN34, how do the results read?
mean correlation with KSR1 profile: 0.00487; mean distance from KSR1 profile: 2.95

For ESD, what does the deposit list?
mean correlation with KSR1 profile: -0.22; mean distance from KSR1 profile: 5.55

For NRCAM, how do the results read?
mean correlation with KSR1 profile: -0.239; mean distance from KSR1 profile: 2.02

A stretch taken from the entries so far, for reference:
ABI2 → mean correlation with KSR1 profile: -0.343; mean distance from KSR1 profile: 1.84
GRAMD2B → mean correlation with KSR1 profile: -0.528; mean distance from KSR1 profile: 3.64
CNKSR1 → mean correlation with KSR1 profile: -0.0421; mean distance from KSR1 profile: 2.75
VCL → mean correlation with KSR1 profile: 0.184; mean distance from KSR1 profile: 1.4
CALCOCO2 → mean correlation with KSR1 profile: -0.864; mean distance from KSR1 profile: 2.08
